Publication PMC6599027
No constants are given. Whether binding was seen depends on the method and setting. In cells and extracts the contact can be indirect. Some binding calls cover weakened binding; strength is not graded here. For part of these data: Sequences can lack the tags named with a protein.

What was measured:
[1] = target: T1, NLR Family CARD Domain Containing 5 (NLRC5), endogenous in human aortic smooth muscle cells (human (endogenous in HASMCs)), Q86WI3; test: co-IP; endogenous proteins in HASMC lysate; 500 μg lysate with 5 μg primary antibody at 4 °C overnight, protein A/G agarose, immunoblot; cells with or without PDGF-BB (10 ng/ml), pioglitazone (10 nM), siCtr or siNLRC5; anti-IgG as negative control; settings: remark: other sources report otherwise
T1 chain: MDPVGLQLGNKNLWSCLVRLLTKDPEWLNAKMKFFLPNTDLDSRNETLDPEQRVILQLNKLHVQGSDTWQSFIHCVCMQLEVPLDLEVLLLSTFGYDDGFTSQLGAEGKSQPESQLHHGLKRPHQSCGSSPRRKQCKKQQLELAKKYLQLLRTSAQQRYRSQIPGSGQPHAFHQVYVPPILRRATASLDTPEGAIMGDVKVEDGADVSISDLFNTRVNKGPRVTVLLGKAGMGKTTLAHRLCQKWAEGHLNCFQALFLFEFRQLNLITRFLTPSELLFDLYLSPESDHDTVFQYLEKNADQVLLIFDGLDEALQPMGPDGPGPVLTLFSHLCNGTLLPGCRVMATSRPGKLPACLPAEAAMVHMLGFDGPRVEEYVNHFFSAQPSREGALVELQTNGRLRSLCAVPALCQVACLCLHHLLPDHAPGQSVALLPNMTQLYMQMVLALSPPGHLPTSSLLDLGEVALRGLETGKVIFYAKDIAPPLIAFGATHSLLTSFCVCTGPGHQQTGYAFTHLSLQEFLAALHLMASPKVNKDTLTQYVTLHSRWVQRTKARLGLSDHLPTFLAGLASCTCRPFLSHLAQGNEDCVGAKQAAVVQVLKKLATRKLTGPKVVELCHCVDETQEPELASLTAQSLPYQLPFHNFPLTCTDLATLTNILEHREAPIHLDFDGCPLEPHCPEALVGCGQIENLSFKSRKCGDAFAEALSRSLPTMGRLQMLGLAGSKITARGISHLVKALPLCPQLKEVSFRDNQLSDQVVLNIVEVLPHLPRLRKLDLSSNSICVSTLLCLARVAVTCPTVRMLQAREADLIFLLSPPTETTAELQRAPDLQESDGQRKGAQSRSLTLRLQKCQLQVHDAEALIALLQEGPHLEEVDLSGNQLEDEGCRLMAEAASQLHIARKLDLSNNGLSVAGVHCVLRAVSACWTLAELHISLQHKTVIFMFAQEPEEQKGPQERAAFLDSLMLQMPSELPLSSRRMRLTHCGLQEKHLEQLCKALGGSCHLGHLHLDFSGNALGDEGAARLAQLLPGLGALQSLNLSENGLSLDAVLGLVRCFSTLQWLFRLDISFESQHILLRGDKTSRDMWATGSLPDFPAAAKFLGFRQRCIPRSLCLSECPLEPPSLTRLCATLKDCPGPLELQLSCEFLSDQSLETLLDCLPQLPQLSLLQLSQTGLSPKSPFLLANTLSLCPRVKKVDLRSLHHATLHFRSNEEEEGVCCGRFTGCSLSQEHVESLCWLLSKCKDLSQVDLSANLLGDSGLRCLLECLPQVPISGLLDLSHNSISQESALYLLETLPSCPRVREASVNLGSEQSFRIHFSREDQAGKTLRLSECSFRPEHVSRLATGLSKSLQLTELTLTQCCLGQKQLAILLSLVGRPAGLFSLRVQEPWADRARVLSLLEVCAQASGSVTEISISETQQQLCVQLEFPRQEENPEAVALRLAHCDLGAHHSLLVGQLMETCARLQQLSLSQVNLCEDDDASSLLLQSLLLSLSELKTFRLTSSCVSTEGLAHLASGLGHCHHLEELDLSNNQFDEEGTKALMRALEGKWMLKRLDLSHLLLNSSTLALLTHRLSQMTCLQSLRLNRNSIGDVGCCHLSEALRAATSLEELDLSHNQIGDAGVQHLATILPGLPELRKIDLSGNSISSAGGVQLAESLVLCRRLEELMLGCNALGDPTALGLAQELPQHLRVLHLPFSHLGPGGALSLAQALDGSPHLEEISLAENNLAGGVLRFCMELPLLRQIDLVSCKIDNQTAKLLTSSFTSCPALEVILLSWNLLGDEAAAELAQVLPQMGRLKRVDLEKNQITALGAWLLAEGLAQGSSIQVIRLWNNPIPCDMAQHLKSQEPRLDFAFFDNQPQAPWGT

Flag-PPARγ = Flag-PPARγ (UniProt P37231); test: co-IP; HEK293T cells co-transfected with myc-tagged NLRC5 or its mutants and Flag-tagged PPARγ or PPARγ-LBD; lysate after 24-h transfection; co-immunoprecipitation of myc and Flag, immunoblot

Binder | binding [1] | binding (Flag-PPARγ)
PPARγ, endogenous in human aortic smooth muscle cells, P37231 1-505 (protein) MGETLGDSPIDPESDSFTDTLSANISQEMTMVDTEMPFWPTNFGISSVDLSVMEDHSHSFDIKPFTTVDFSSISTPHYEDIPFTRTDPVVADYKYDLKLQEYQSAIKVEPASPPYYSEKTQLYNKPHEEPSNSLMAIECRVCGDKASGFHYGVHACEGCKGFFRRTIRLKLIYDRCDLNCRIHKKSRNKCQYCRFQKCLAVGMSHNAIRFGRMPQAEKEKLLAEISSDIDQLNPESADLRALAKHLYDSYIKSFPLTKAKARAILTGKTTDKSPFVIYDMNSLMMGEDKIKFKHITPLQEQSKEVAIRIFQGCQFRSVEAVQEITEYAKSIPGFVNLDLNDQVTLLKYGVHEIIYTMLASLMNKDGVLISEGQGFMTREFLKSLRKPFGDFMEPKFEFAVKFNALELDDSDLAIFIAVIILSGDRPGLLNVKPIEDIQDNLLQALELQLKLNHPESSQLFAKLLQKMTDLRQIVTEHVQLLQVIKKTETDMSLHPLLQEIYKDLY | binds | –
myc-NLRC5 NACHT (domain or fragment, UniProt Q86WI3 222-539) RVTVLLGKAGMGKTTLAHRLCQKWAEGHLNCFQALFLFEFRQLNLITRFLTPSELLFDLYLSPESDHDTVFQYLEKNADQVLLIFDGLDEALQPMGPDGPGPVLTLFSHLCNGTLLPGCRVMATSRPGKLPACLPAEAAMVHMLGFDGPRVEEYVNHFFSAQPSREGALVELQTNGRLRSLCAVPALCQVACLCLHHLLPDHAPGQSVALLPNMTQLYMQMVLALSPPGHLPTSSLLDLGEVALRGLETGKVIFYAKDIAPPLIAFGATHSLLTSFCVCTGPGHQQTGYAFTHLSLQEFLAALHLMASPKVNKDTLTQ | – | binds
myc-NLRC5 DD (domain or fragment, UniProt Q86WI3 1-221) MDPVGLQLGNKNLWSCLVRLLTKDPEWLNAKMKFFLPNTDLDSRNETLDPEQRVILQLNKLHVQGSDTWQSFIHCVCMQLEVPLDLEVLLLSTFGYDDGFTSQLGAEGKSQPESQLHHGLKRPHQSCGSSPRRKQCKKQQLELAKKYLQLLRTSAQQRYRSQIPGSGQPHAFHQVYVPPILRRATASLDTPEGAIMGDVKVEDGADVSISDLFNTRVNKGP | – | no binding
